Results as given in PubChem BioAssay AID540276 (National Center for Advancing Translational Sciences (NCATS), 2011).
About 5,400 (1.8%) of roughly 300,000 compounds were called active. This list was built around the results that the source calls inconclusive (neither active nor inactive); the mix of calls is not that of the screen. Calls come from the whole dose curve; tested in HEK293 cells. Potencies beside an inconclusive call are fits to weak or partial responses and may not hold up.
Potency is the fitted concentration of half-maximal effect.

Assay: qHTS for inhibitors of binding or entry into cells for Marburg Virus
Details: Marburg virus pseudotyped entry inhibition, cell reporter; series mostly up to 37.8 µM
With COc1ccc(CCNc2ncnc3sc(C)cc23)cc1OC the Potency was inconclusive: 3.55 µM [inhibitor, partial curve, poor fit]. In the case of Nn1c(Cc2ccc(Br)cc2)n[nH]c1=S, the Potency is reported as inconclusive: 35.5 µM [activator, single point]. With CC(=O)NCCc1ccc(C(=O)Cn2cnc3ccccc3c2=O)cc1 the Potency was “inactive”. In the case of CCOC(=O)c1c(CN(C)C)n(-c2ccc(C)cc2)c2cc(Br)c(O)cc12, the Potency is reported as inconclusive: 29.1 µM [inhibitor, single point]. In the case of COc1ccccc1-c1cc(C(=O)Nc2cccnc2)no1, the Potency is reported as inconclusive: 13 µM [inhibitor, partial curve, poor fit]. For CC(C)CCC(CC(C)O)c1n[nH]c(=S)n1-c1ccccc1 (stereo not drawn), the Potency was inconclusive: 3.55 µM [activator, single point]. With O=C1CC(c2cccc(Cl)c2)CC(O)=C1C=NCCCO (stereo not drawn) the Potency was inconclusive: 17.8 µM [inhibitor, partial curve, poor fit]. In the case of CC(=O)Nc1cc2c(cc1Br)OCCO2, the Potency is reported as “inactive”. In the case of COc1ccc(C(CCNCc2ccc(N(C)C)cc2)c2ccccc2OC)cc1 (stereo not drawn), the Potency is reported as inconclusive: 1.12 µM [inhibitor, full curve, poor fit]. For COc1ccc(CC2(C)OC(c3ccc(C)c([N+](=O)[O-])c3)=NN2C(C)=O)cc1 (stereo not drawn), the Potency was inconclusive: 35.5 µM [inhibitor, single point]. For O=C1CCC(C(=O)Nc2ccc([N+](=O)[O-])cc2)N1 (stereo not drawn), the Potency was inconclusive: 0.891 µM [inhibitor, full curve, poor fit]. In the case of CC(Nc1oc(-c2ccc(COc3ccccc3)o2)nc1C#N)c1ccccc1 (stereo not drawn), the Potency is reported as “inactive”. In the case of O=C(N/N=C/c1cccc([N+](=O)[O-])c1)c1cccc(Br)c1, the Potency is reported as “inactive”. In the case of CCC(CC)NC(=O)c1ccc2nc[nH]c2c1, the Potency is reported as “inactive”. For Cc1oc(-c2cccs2)nc1CN1CCN(C2CCCC2)C(CCO)C1 (stereo not drawn), the Potency was inconclusive: 35.5 µM [inhibitor, single point]. For CCN(CC)CCNCC(=O)Nc1ccc(Cl)cc1C(=O)c1ccccc1, the Potency was “inactive”. In the case of CCc1nnc(NC(=O)c2nc(SCc3cccc(C)c3)ncc2Cl)s1, the Potency is reported as “inactive”. For O=S(=O)(c1ccccc1)n1nc(-c2ccco2)nc1NCc1ccccc1, the Potency was inconclusive: 20 µM [activator, single point]. With CNc1cc(C)c(C#N)c2nc3ccccc3n12 the Potency was “inactive”. In the case of Cc1cc(C)c(C)c(S(=O)(=O)NCc2ccc(C(=O)N3CCCC3)cc2)c1C, the Potency is reported as “inactive”. With CC(O)CN=c1cc(-c2ccccc2)oc2ccc(Cl)cc12 (stereo not drawn) the Potency was inconclusive: 20 µM [inhibitor, partial curve, poor fit]. For Cc1cc(C)nc(Oc2ccc(Br)cc2Br)n1, the Potency was “inactive”. With COc1cc2c(cc1OC)CN(S(=O)(=O)/C=C/c1ccccc1)CC2 the Potency was inconclusive: 5.62 µM [inhibitor, single point]. In the case of Cn1nc(C(=O)NC2CCCN(Cc3ccccc3F)C2)c2ccccc2c1=O (stereo not drawn), the Potency is reported as inconclusive: 15.8 µM [inhibitor, single point]. In the case of COc1ccccc1NC(=O)CC(=O)CSc1nnc(-c2ccc(C)cc2)n1-c1ccccc1, the Potency is reported as inconclusive: 2.51 µM [activator, single point]. In the case of COc1ccc2[nH]c3c(c2c1)CCN[C@H]3C, the Potency is reported as inconclusive: 20 µM [inhibitor, partial curve, poor fit]. For Cc1cc(C)c(-c2c(N)cc(Br)cc2Br)c(N)c1, the Potency was inconclusive: 20 µM [inhibitor, partial curve, poor fit]. For CC1(c2ccccc2)NC(=O)N(CC(=O)Nc2ccccc2N2CCCCC2)C1=O (stereo not drawn), the Potency was inconclusive: 11.2 µM [inhibitor, partial curve, poor fit]. In the case of COC(=O)Cc1ccc(NC(=S)Nc2ccccn2)cc1, the Potency is reported as “inactive”. For O=C(CSc1nc2[nH]ncc2c(=O)n1-c1ccccc1)c1ccc2c(c1)OCCO2, the Potency was inconclusive: 25.1 µM [inhibitor, partial curve, poor fit]. With O=C(CC(c1ccccc1)c1ccccc1O)NCc1ccccc1 (stereo not drawn) the Potency was inconclusive: 4.47 µM [inhibitor, partial curve]. For COCCNc1nc(SCC(=O)N2CCN(c3ccccc3)CC2)nc2ccccc12, the Potency was inconclusive: 23.1 µM [inhibitor, single point]. With CC(O)C(=O)NCCOCCOCCNC(=O)C(C)O (stereo not drawn) the Potency was inconclusive: 3.16 µM [inhibitor, single point]. With CC(=O)Nc1ccc(NC(=O)c2ccc3c(c2)CCN3S(=O)(=O)c2ccc(C)cc2)cc1 the Potency was “inactive”. With c1ccc(-c2ccn3nnnc3n2)cc1 the Potency was “inactive”. In the case of CCC1=NN2C(=N)/C(=C\c3cccn3-c3ccc(Cl)cc3)C(=O)N=C2S1, the Potency is reported as “inactive”. For Cc1ccc(CN2[C@@H](c3ccccc3)COc3c(Cl)cccc3S2(=O)=O)cc1, the Potency was inconclusive: 6.28 µM [inhibitor, full curve]. For CCc1ccc(C(=O)NNC(=O)c2cccc(N3C(=O)CCC3=O)c2)cc1, the Potency was inconclusive: 35.5 µM [inhibitor, single point]. In the case of O=C(NN=C(c1ccccc1)c1ccccn1)c1ccccc1, the Potency is reported as active: 6.31 µM. With Nc1ncc(Br)cc1S(=O)(=O)Nc1cc(C(F)(F)F)cc(C(F)(F)F)c1 the Potency was inconclusive: 20 µM [inhibitor, partial curve, poor fit]. For Cc1c(CN(C)C)c2c(n1Cc1ccccc1)C(=O)c1ccc(Br)cc1-2, the Potency was inconclusive: 29.1 µM [inhibitor, single point]. With COCCSc1nc(N)c2c3c(sc2n1)CN(C)CC3 the Potency was inconclusive: 35.5 µM [activator, single point]. With CCOC(=O)c1cnc2ccc(OCC)cc2c1NCc1cccnc1 the Potency was inconclusive: 6.31 µM [activator, single point]. With Cc1ccc(C(=O)NC2CCCCC2)cc1 the Potency was “inactive”. For CC(C)N1CCc2c(sc(NC(=O)CCS(=O)(=O)c3ccccc3)c2C#N)C1, the Potency was “inactive”. For CCn1nc(C)c(CNC(=O)C2CCC(=O)N(Cc3ccc(Cl)cc3)C2)c1C (stereo not drawn), the Potency was inconclusive: 2 µM [activator, full curve, poor fit]. With COc1ccc(-c2c3c([nH]c(=S)c2C#N)CCC3)cc1 the Potency was “inactive”. In the case of O=C(Nc1ccn(Cc2c(F)c(F)cc(F)c2F)n1)c1ccc(COc2ccccc2Cl)cc1, the Potency is reported as inconclusive: 20.6 µM [inhibitor, single point]. In the case of Cn1c(=O)[nH]c(=O)c2c1nc(NCCCO)n2Cc1ccc(F)cc1, the Potency is reported as “inactive”. For Cc1ccccc1-n1c(C)nnc1SCc1nc2ccccc2s1, the Potency was “inactive”. For O=C(O)c1cc(-c2ccccc2)nn1Cc1ccccc1, the Potency was “inactive”. For Cc1cccn2c(=O)c(/C=C(\C#N)S(=O)(=O)c3ccccc3)c(N3CCC(C(N)=O)CC3)nc12, the Potency was “inactive”. In the case of CC(C)CC1NC(=S)N(Cc2ccccc2)C1=O (stereo not drawn), the Potency is reported as inconclusive: 29.1 µM [inhibitor, single point]. In the case of Cc1ccc(C)c(NC(=O)COC(=O)c2nn(C)c(=O)c3ccccc23)c1, the Potency is reported as “inactive”. For COc1ccc(C)cc1NC(=O)N(C(C)C)C1CCN(C(C)=O)CC1, the Potency was “inactive”. In the case of Cc1ccc(O)c(C(CC(=O)NCc2cccnc2)c2ccccc2)c1 (stereo not drawn), the Potency is reported as inconclusive: 28.2 µM [activator, partial curve, poor fit]. In the case of O=C(Cc1coc2ccc3ccccc3c12)Nc1nccs1, the Potency is reported as “inactive”. With c1ccc(Oc2nc(N3CCOCC3)nc(N3CCOCC3)n2)cc1 the Potency was inconclusive: 29.1 µM [inhibitor, single point]. In the case of OCCn1c(CSc2nnc(-c3ccco3)n2-c2ccccc2)nc2ccc(Cl)cc21, the Potency is reported as “inactive”. For CCOC(=O)CN1C(=O)[C@@]2(C[C@@H](C)C[C@@H](C)O2)c2ccccc21, the Potency was “inactive”. In the case of CC(C)(CNc1ccc(S(=O)(=O)C(F)(F)F)cc1[N+](=O)[O-])N1CCOCC1, the Potency is reported as “inactive”. For S=C1N(c2ccccc2)CN(CCN2CCOCC2)CN1c1ccccc1, the Potency was inconclusive: 20 µM [activator, single point]. For CCOc1ccc(NC(=O)CC2C(=O)N(c3ccc(OC)cc3)C(=O)N2CCC2=CCCCC2)cc1 (stereo not drawn), the Potency was inconclusive: 3.55 µM [activator, single point]. With CCCCC(=O)Nc1ccc(C)c(O)c1 the Potency was inconclusive: 2.82 µM [activator, full curve]. In the case of CCCc1nc(SCC(=O)N2CCc3ccccc3C2)c2ccccc2n1, the Potency is reported as inconclusive: 32.6 µM [inhibitor, single point]. In the case of CN(C)c1ccc(C(=O)OCC(=O)NCCNC(=O)COC(=O)c2ccc(N(C)C)cc2)cc1, the Potency is reported as inconclusive: 35.5 µM [activator, single point]. With O=C(CNS(=O)(=O)c1ccc(F)cc1)N1CCCCCC1 the Potency was inconclusive: 3.16 µM [activator, single point]. With CCOc1ccc(N(CC(=O)NCc2ccc(F)cc2)C(=O)CCC(=O)Nc2nccs2)cc1 the Potency was inconclusive: 22.4 µM [inhibitor, single point]. In the case of CNc1ncc(C(=O)c2ccc(F)cc2)s1, the Potency is reported as inconclusive: 7.94 µM [activator, partial curve]. With CCc1ccc(/C=C2\SC(=S)N(CCCC(=O)Nc3ccccn3)C2=O)cc1 the Potency was inconclusive: 10 µM [inhibitor, partial curve, poor fit]. In the case of COc1ccccc1C=NNc1nc(C)cc(=O)[nH]1, the Potency is reported as “inactive”. With Cc1ccc(NC(=O)CSc2nnc(-c3ccc(S(=O)(=O)N4CCOCC4)cc3)n2C)cc1 the Potency was “inactive”. With Cc1cc(C(=O)OCC(=O)NCc2ccco2)c(C)n1-c1ccc(F)cc1 the Potency was inconclusive: 1.78 µM [inhibitor, full curve, poor fit].
